These are yes or no findings as the source states them, for the method shown. Binding seen in cells or lysates may run through a third protein. Some binding calls cover weakened binding; strength is not graded here.
Experiments:
[1] = target: L1CAM (human (endogenous in SW1353)) (UniProt P32004); test: co-IP; same procedure (protein A sepharose, antibody-cross-linked beads, overnight) in SW1353 CS protein extracts; Western blotting
[2] = target: heat shock protein 90 beta (Hsp90ab1) (human (endogenous in C28/I2)) (UniProt P08238); test: co-IP; anti-Hsp90ab1 antibody cross-linked to protein A sepharose, incubated overnight with C28/I2 chondrocytes lysate, washed three times with PBS; normal IgG as negative control; Western blotting

By UniProt entry, the sequences of proteins in these tests, tags left out. Residues count along the entry.
UniProt P32004, residues 20-1257: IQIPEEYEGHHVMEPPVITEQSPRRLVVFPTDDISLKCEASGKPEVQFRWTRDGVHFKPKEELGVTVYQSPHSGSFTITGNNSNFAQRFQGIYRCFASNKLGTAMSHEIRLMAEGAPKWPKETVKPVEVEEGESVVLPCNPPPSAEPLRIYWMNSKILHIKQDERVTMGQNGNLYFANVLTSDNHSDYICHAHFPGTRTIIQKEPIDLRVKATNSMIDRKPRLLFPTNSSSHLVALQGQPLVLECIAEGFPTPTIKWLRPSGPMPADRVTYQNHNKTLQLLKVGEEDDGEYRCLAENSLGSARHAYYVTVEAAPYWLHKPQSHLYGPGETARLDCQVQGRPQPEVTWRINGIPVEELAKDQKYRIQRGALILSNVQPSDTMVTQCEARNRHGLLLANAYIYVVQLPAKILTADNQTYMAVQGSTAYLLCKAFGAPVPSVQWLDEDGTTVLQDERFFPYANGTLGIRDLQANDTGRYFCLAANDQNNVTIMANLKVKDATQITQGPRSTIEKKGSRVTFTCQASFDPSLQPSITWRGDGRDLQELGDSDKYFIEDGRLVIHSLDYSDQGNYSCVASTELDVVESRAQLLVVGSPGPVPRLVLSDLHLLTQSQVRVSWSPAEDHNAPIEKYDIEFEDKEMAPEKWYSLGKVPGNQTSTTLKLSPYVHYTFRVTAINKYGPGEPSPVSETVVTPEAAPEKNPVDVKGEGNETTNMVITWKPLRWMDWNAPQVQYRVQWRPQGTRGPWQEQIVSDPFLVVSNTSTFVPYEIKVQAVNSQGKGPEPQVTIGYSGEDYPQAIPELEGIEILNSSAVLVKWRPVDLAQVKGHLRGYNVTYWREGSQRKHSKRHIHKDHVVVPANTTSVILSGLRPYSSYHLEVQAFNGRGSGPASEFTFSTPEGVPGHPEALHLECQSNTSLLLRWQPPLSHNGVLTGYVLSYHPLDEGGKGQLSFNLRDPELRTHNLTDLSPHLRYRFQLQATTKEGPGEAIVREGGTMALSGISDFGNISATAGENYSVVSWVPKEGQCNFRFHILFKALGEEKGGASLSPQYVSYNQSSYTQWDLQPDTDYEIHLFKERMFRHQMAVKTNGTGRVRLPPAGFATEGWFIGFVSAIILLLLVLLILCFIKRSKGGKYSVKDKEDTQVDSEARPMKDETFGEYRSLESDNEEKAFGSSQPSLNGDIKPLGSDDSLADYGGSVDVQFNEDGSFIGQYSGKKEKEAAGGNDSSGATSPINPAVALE
UniProt P08238: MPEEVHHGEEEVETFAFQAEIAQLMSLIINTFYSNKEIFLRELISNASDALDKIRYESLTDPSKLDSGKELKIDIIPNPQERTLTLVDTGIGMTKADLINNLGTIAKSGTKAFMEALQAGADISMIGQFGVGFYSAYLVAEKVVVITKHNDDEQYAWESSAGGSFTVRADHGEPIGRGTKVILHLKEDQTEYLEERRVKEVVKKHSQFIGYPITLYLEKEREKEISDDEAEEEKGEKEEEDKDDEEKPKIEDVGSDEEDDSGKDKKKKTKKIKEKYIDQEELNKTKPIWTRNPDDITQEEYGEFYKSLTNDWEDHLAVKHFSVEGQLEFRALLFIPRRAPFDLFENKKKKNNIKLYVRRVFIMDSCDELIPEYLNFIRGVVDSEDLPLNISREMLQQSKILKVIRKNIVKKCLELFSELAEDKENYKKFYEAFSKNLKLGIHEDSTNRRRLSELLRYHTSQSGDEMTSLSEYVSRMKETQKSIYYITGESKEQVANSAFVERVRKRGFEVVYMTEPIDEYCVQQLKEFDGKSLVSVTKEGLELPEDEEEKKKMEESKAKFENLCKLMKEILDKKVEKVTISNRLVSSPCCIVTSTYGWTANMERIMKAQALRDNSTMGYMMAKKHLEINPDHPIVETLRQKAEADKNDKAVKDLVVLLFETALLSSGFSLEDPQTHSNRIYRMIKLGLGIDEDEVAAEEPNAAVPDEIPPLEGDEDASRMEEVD
UniProt P04406: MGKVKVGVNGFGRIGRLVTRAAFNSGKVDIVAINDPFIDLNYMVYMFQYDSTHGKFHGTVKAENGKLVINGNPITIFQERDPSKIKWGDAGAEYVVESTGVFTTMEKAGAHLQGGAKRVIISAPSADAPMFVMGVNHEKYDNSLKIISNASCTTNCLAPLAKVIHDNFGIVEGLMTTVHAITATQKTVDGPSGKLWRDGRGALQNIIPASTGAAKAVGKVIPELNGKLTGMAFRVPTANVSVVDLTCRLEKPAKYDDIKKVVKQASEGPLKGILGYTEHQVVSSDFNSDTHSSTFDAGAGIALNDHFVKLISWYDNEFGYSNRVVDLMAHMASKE
UniProt P08670: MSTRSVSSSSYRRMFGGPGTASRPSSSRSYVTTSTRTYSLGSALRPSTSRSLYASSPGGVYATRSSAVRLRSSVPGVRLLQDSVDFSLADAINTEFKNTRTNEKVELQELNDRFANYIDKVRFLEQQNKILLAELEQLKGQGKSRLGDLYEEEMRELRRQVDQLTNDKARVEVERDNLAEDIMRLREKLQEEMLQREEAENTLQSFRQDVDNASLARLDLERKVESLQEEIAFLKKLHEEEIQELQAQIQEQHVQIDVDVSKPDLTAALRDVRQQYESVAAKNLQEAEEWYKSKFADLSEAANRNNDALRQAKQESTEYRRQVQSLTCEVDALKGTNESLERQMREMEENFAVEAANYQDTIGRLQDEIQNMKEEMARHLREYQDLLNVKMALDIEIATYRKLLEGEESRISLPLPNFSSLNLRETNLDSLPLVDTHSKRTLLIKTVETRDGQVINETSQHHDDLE

Row | binding [1] | binding [2] | Substance
1 | binds | – | glyceraldehyde 3-phosphate dehydrogenase (GAPDH) (from UniProt P04406 1-335)
2 | – | binds | vimentin (from UniProt P08670 1-466)

— article PMC9264838
